Measured values: the supplement of paper PMC12823440, “Inhibitors supercharge kinase turnover through native proteolytic circuits” (Nature, 2025)
Structures can show the parent of a compound that is named as a salt. This is one part of the list. The calls rarely recur for the same compound in another form.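 Kinases were expressed as nanoluciferase fusions in K562 cells and luminescence was read every 4 h between 2 and 18 h as percent of control, DMSO set to 100% and a positive control to 0%. A time point counts as decreased when the signal drops significantly (2 sigma). The hit call is the authors' own, does not follow from the count of time points alone, and its rule is not shown.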

The chains behind the UniProt entries cited, without tags or fusion partners. Where a name states a change or a piece, a line headed by the entry shows the natural chain unless it says otherwise.
UniProt O96013: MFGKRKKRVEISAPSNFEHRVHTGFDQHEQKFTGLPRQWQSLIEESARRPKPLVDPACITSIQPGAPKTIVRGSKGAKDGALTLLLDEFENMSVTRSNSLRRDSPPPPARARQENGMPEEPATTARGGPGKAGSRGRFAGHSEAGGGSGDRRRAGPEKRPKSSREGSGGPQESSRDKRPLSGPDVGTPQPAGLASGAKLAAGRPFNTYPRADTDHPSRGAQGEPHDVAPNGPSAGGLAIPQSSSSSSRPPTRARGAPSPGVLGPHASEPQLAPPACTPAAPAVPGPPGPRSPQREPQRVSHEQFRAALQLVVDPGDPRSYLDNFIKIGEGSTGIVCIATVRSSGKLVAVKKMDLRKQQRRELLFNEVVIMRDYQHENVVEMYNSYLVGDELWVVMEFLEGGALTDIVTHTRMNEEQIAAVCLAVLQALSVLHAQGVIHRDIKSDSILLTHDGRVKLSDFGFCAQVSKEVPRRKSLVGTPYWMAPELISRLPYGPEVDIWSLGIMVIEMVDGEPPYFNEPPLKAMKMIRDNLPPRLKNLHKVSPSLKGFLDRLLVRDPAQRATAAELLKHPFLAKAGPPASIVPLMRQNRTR
UniProt Q96KB5: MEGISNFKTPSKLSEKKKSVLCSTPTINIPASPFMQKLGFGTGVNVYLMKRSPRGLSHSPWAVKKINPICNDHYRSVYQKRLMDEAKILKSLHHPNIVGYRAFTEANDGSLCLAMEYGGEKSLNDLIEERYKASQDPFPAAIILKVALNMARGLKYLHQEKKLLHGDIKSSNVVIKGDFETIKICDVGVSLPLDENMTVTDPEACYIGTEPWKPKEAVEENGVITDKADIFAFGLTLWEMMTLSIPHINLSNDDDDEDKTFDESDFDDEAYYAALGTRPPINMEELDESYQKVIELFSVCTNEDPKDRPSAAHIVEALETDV

Target: PAK4 (UniProt O96013)
Test: kinase-Nluc reporter destabilization hit call (1 = scored as downregulated) (binary); higher = compound decreases kinase abundance
Conditions: K562; 2-18 h

kinase-Nluc reporter destabilization hit call, inactive:
CC(=O)Nc1nc(C)c(-c2nc(N3CCCC(O)C3)no2)s1 (configuration not stated) (10 µM) 0
CCc1ccc(C(=O)COc2ccc(CC3SC(=O)NC3=O)cc2)nc1 (configuration not stated) (10 µM) 0
NC(=O)c1ccc(-c2cnn3ccc(NCc4cccnc4)nc23)cc1 (2.5 µM) 0
Nc1[nH]c(=O)nc2c1ncn2[C@@H]1O[C@H](CO)[C@@H](O)[C@H]1O [Crotonoside] (10 µM) 0
CC1(COc2ccc3c(c2)ncn3-c2ccc3cccc(N4CCC(N)CC4)c3n2)COC1 [Crenolanib] (2.5 µM) 0
CSc1ccc(CN2CCCC(Nc3ccc4[nH]ncc4c3)C2)cc1 (configuration not stated) [Rho-Kinase-IN-1] (10 µM) 0
N=C(N)NC(=N)NCCc1ccccc1 [Phenformin (hydrochloride)] (10 µM) 0
C=C(F)C(=O)N1CCN(c2nc(OC[C@@H]3CCCN3C)nc3c2CCN(c2cccc4cccc(Cl)c24)C3)C[C@@H]1CC#N (2.5 µM) 0

Target: PBK (UniProt Q96KB5)
Test: as above
Conditions: K562; 2-18 h

kinase-Nluc reporter destabilization hit call, inactive:
CN(C)c1nc2c(Br)c(Br)c(Br)c(Br)c2n1CC(=O)O (10 µM) 0
COc1cc(N2CCC(N(C)C)CC2)ccc1Nc1ncc(Cl)c(Nc2ccccc2P(C)(C)=O)n1 (2.5 µM) 0
CC(C)C[C@H](NC(=O)[C@H](CCCCN)NC(=O)[C@H](CO)NC(=O)[C@@H](N)CC(C)C)C(N)=O [LSKL, Inhibitor of Thrombospondin (TSP-1) (TFA)] (10 µM) 0
O=C(Nc1ccc(Cl)c(Cl)c1)Nc1ccc2nnsc2c1 (10 µM) 0
CC(C)Oc1ccc(-c2cnc3c(-c4ccnc5ccccc45)cnn3c2)cc1 (10 µM) 0
O=C(CCCCCn1cc(Nc2ncc(Cl)c(Nc3ccc(Cl)cc3)n2)cn1)NO (2.5 µM) 0
CC(=O)NCCc1c[nH]c2ccc(O)cc12 [N-Acetyl-5-hydroxytryptamine] (10 µM) 0
O=C(c1ccc(Nc2nccc(-c3cc4ccccc4s3)n2)cc1)N1CCC(N2CCCC2)CC1 (2.5 µM) 0
C=CC(=O)N1CCC[C@@H](n2nc(C(=O)Nc3ccc(CC(=O)N(C)C)c(C)c3C)c3c(N)ncnc32)C1 (10 µM) 0
CC(CCc1ccccn1)(CCc1ccccn1)C(=O)c1ccccc1 (10 µM) 0
CC[C@@H]1[C@H](F)C(=O)N[C@@H]1COc1nccc2cc(C(N)=O)c(OC)cc12 (10 µM) 0
Nc1cc(C(F)F)c(-c2nc(N3C4CCC3COC4)nc(N3C4CCC3COC4)n2)cn1 (2.5 µM) 0
Oc1ccccc1C(=S)N1CCCC1 (10 µM) 0
COc1ccc(-n2c(C)c([N+](=O)[O-])c3ccc(O)cc32)cc1 (10 µM) 0
CN(C)Cc1cccc(N=C(c2ccccc2)c2c(O)[nH]c3cc(C(N)=O)ccc23)c1 (10 µM) 0
CCCCNC(=N)NC(=N)N [Buformin (hydrochloride)] (2.5 µM) 0
O=c1ccoc2cc(O)ccc12 [7-Hydroxy-4H-chromen-4-one] (10 µM) 0
C=CC(=O)Nc1cccc(-n2c(=O)cc(C)c3cnc(Nc4ccc(OCCN(C)C)cc4OC)nc32)c1 (10 µM) 0
O=c1[nH]ccc2cc(OC3CCNCC3)ccc12 (10 µM) 0
CCCCOc1ccc(CC/C=C2\SC(=O)N(CCN)C2=O)cc1 [K145 (hydrochloride)] (2.5 µM) 0
CC(C)(O)[C@@H]1CC[C@](C)([C@H]2[C@@H](O)C[C@@]3(C)[C@@H]4C[C@H](O[C@@H]5O[C@H](CO)[C@@H](O)[C@H](O)[C@H]5O)[C@H]5C(C)(C)[C@@H](O[C@@H]6OC[C@@H](O)[C@H](O)[C@H]6O[C@@H]6O[C@H](CO)[C@@H](O)[C@H](O)[C@H]6O)CC[C@@]56C[C@@]46CC[C@]23C)O1 [Astragaloside VI] (10 µM) 0
O=C1NC(=O)C(c2cn(-c3ccccc3)nc2-c2ccc(F)cc2)N1 (configuration not stated) (10 µM) 0
C[C@@H]1COCCN1c1cc(C2([S@](C)(=N)=O)CC2)nc(-c2cc[nH]c3nccc2-3)n1 [Ceralasertib] (2.5 µM) 0
CN(C)Cc1cccc(N=C(c2ccccc2)c2c(O)[nH]c3cc(C(=O)N(C)C)ccc23)c1 (10 µM) 0
CN1CCN(CCCNc2ncc(Cl)c(-c3cc4c(C(=O)NC5CC5)cccc4s3)n2)CC1 (10 µM) 0
CC[C@H](Nc1ncnc2[nH]cnc12)c1oc2ccccc2c(=O)c1-c1cccc(F)c1 [Tenalisib] (10 µM) 0
O=C1NC(=O)C(c2cnc3ccccn23)=C1c1cn2c3c(cc(F)cc13)CN(C(=O)N1CCCCC1)CC2 (2.5 µM) 0
COc1c(C)c(C(=O)c2ccc(N)c(C(=O)O)c2)n2ccccc12 (10 µM) 0
N#Cc1ccc(-c2c(-c3ncn[nH]3)sc(N3CCOCC3)c2C#N)c(F)c1 (10 µM) 0
N#C/C(=C(/N)Sc1ccc(N)cc1)c1ccccc1C(F)(F)F (10 µM) 0
O=C(Nc1ccc(Cl)cc1)C1CCCN(C(=O)c2cccc(-c3ccco3)c2)C1 (configuration not stated) (2.5 µM) 0
CC(=O)Nc1nc(C)c(-c2nc(N3CCCC(O)C3)no2)s1 (configuration not stated) (10 µM) 0
CCc1ccc(C(=O)COc2ccc(CC3SC(=O)NC3=O)cc2)nc1 (configuration not stated) (10 µM) 0
NC(=O)c1ccc(-c2cnn3ccc(NCc4cccnc4)nc23)cc1 (2.5 µM) 0
Nc1[nH]c(=O)nc2c1ncn2[C@@H]1O[C@H](CO)[C@@H](O)[C@H]1O [Crotonoside] (10 µM) 0
CC1(COc2ccc3c(c2)ncn3-c2ccc3cccc(N4CCC(N)CC4)c3n2)COC1 [Crenolanib] (2.5 µM) 0
CSc1ccc(CN2CCCC(Nc3ccc4[nH]ncc4c3)C2)cc1 (configuration not stated) [Rho-Kinase-IN-1] (10 µM) 0
N=C(N)NC(=N)NCCc1ccccc1 [Phenformin (hydrochloride)] (10 µM) 0
C=C(F)C(=O)N1CCN(c2nc(OC[C@@H]3CCCN3C)nc3c2CCN(c2cccc4cccc(Cl)c24)C3)C[C@@H]1CC#N (2.5 µM) 0
